PMC7753766
No constants are given. Whether binding was seen depends on the method and setting.

Protein sequences, listed by entry. Tags and fused reporters are not part of them. Residues count along the entry.
UniProt Q9UEW3, residues 65-520: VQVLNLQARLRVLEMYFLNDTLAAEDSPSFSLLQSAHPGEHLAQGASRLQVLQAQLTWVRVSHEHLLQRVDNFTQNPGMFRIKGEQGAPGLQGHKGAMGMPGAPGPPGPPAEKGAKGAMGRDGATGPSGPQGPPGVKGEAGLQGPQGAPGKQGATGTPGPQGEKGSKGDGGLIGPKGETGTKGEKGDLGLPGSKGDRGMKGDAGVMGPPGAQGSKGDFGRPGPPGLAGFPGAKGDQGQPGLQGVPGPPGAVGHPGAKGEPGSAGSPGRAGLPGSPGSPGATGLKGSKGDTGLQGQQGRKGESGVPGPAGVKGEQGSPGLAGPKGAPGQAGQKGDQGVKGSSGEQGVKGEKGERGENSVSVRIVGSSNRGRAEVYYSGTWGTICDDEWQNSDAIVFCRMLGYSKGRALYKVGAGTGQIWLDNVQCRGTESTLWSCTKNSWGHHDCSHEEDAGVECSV

Molecular target: T1, purified human C-reactive protein (CRP) (human) (UniProt P02741)
T1 sequence: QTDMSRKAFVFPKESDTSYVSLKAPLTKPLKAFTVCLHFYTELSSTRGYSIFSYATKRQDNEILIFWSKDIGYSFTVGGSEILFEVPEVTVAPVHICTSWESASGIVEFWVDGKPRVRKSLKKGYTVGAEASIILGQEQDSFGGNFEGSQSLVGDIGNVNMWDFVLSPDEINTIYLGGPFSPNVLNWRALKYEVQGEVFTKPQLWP
Experiment: condition: 5 µg/ml receptor; 40 µg/ml CRP added to the serum; flow cytometry of protein-coated crystals; MSU crystals (lot1) opsonized in human serum of three donors with or without 40 µg/ml CRP at 37°C for 30 min, washed, then 5 µg/ml His-tagged receptor in HBSS + 5% BSA at 4°C for 60 min; detected with anti-His Tag PE; only the binder purified

Substance | binding
recombinant His-tagged human LDLR (low-density lipoprotein receptor) (from UniProt P01130 22-788) | no binding
recombinant His-tagged human MARCO (macrophage receptor with collagenous structure) (from UniProt Q9UEW3-1 65-520) | no binding
